PubChem BioAssay AID504467 (National Center for Advancing Translational Sciences (NCATS), 2011)
The whole screen tested about 330,000 compounds, of which about 7,700 (2.3%) were called active. The inconclusive results got no clear call from the source; some entries with a clear call stand among them for comparison. The call rests on the fitted dose curve; in most records, active means well fitted inhibition curve with a large enough effect; inconclusive means small, poorly fitted or top-dose-only effect, or effect the other way; inactive means flat fitted curve, though single readings scatter. Potencies of inconclusive entries are doubtful fits and often do not repeat.

Experiment: qHTS screen for small molecules that inhibit ELG1-dependent DNA repair in human embryonic kidney (HEK293T) cells expressing luciferase-tagged ELG1; further: nearly all actives have a fitted effect of over 55% in size
Settings: HEK293T ELG1-luciferase reporter, luminescence, 16 h, DNA damage induced by 5-fluorouridine; series mostly up to 46.1 µM
Method in brief: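 DMSO vehicle served as the neutral condition. Each well held 2,000 cells given 5-fluorouridine plus compound; after 16 hr at 37 °C/5% CO2, ONE-Glo was added and luciferase measured 30 min later.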
Potency means the concentration at half of the fitted maximal effect.

SMILES	Potency
CN(C#N)c1nccc(-c2cccs2)n1	inconclusive: 8.2 µM [activator, partial curve]
COc1cccc(/C=C2\Sc3ccc(C(=O)NCc4cccnc4)cc3N(C)C2=O)c1	inconclusive: 29.1 µM [inhibitor, single point]
CC(C)(C)c1ccc(/C=C(\C#N)C(=O)Nc2ccccn2)cc1	inactive
COc1cccc(-n2c(C)nc3c(cnn3-c3ccc(Cl)cc3)c2=O)c1	inconclusive: 5.8 µM [inhibitor, partial curve, poor fit]
CNCC(O)c1ccc(OC(=O)C(C)(C)C)c(OC(=O)C(C)(C)C)c1 (stereo not given)	inactive
COc1ccc(S(=O)(=O)NCCSc2ccc(C)cc2)cc1OC	inconclusive: 18.4 µM [inhibitor, partial curve, poor fit]
CCCCn1c(N)c(N(CC(C)C)C(=O)C2=COCCO2)c(=O)[nH]c1=O	inactive
O=C(Nc1ccc(-n2ccc(C(F)(F)F)n2)cc1)c1cccs1	inconclusive: 4.61 µM [activator, partial curve]
CCCOc1ccc(S(=O)(=O)n2cc(Br)c(=O)[nH]c2=O)cc1	inconclusive: 0.517 µM [activator, full curve]
O=C(Nc1nnc(-c2ccco2)o1)c1ccc(S(=O)(=O)N2CCCC2)cc1	inconclusive: 18.3 µM [inhibitor, single point]
CC(C)(C)N1CC23C=CC(C[C@@H]2C1=O)O3 (stereo not given in full)	inconclusive: 22.4 µM [activator, single point]
O=C(CCC(=O)N1CCN(S(=O)(=O)c2ccc(Cl)cc2)CC1)NC1CCCc2ccccc21 (stereo not given)	inactive
CCn1c(=O)c(C(C)=O)nc2ccccc21	inactive
O=C(CN1C(=O)NC2(CCCC2)C1=O)Nc1nc(-c2ccc(F)cc2)cs1	inconclusive: 18.4 µM [inhibitor, single point]
CCc1ccc(OCC2c3cc(OC)c(OC)cc3CCN2C(=S)NC)cc1 (stereo not given)	inconclusive: 23.1 µM [inhibitor, single point]
COC(=O)C(C)N1C(=O)S/C(=C/c2cc(C)n(-c3ccccn3)c2C)C1=O (stereo not given)	inconclusive: 2.31 µM [activator, partial curve]
COCCCNC(=O)Cn1nnc(-c2ccc(NC(=O)c3ccccc3F)cc2)n1	inconclusive: 16.4 µM [activator, partial curve]
Cc1cc(N2CCOCC2)nc2ccc(Cl)cc12	inconclusive: 20.6 µM [activator, partial curve]
O=[N+]([O-])c1cccc(S(=O)(=O)/N=C(/Nc2ccccc2)c2ccccc2)c1	inconclusive: 18.3 µM [inhibitor, partial curve, poor fit]
Cc1cnc(NC(=O)c2ccc(F)c(S(=O)(=O)N3CCOCC3)c2)s1	inconclusive: 29.1 µM [inhibitor, single point]
Nc1cc(C(=O)c2ccccc2)ccc1N1CCOCC1	inconclusive: 14.6 µM [activator, partial curve]
Cc1nn(C)c(C)c1/C=C(/C(=O)C(C)(C)C)n1cncn1	inconclusive: 29.1 µM [inhibitor, single point]
CCN(CC(=O)NCc1ccc(F)cc1)CC(=O)NC1CCCC1	inactive
CCN1C(=S)SC(=O)C1=C1C=C(C)OC(C)=C1	inconclusive: 11.6 µM [activator, partial curve]

SMILES	Potency
CCCCOc1ccc(C(=O)N2CCN(c3ncccn3)CC2)cc1	inconclusive: 35.5 µM [inhibitor, single point]
N#Cc1c(N)nc2c(c1N)CC(CCl)O2 (stereo not given)	inconclusive: 18.4 µM [activator, partial curve, poor fit]
Cc1nn(-c2ccccc2)c2sc(C(=O)NC3CCCCC3)cc12	inconclusive: 29.1 µM [inhibitor, partial curve, poor fit]
CC1(C)COC(c2cccn2Cc2ccccc2Cl)=N1	inconclusive: 20.6 µM [activator, partial curve, poor fit]
Cc1cc(NC(=O)CSc2nnc(-c3cccc(F)c3)n2N)no1	inactive
COc1ccc(N2CCN(C(=O)COC(=O)c3c(-c4ccccc4)noc3C)CC2)cc1	inconclusive: 29.1 µM [inhibitor, single point]
CCn1cc(CNC(=S)Nc2cccc3ccccc23)cn1	inactive
CC(C)N(C(=O)Cn1c(SCC(=O)NCc2ccc3c(c2)OCO3)nc2ccccc21)C(C)C	inactive
CN(C(=O)CSc1nc2ccc(Br)cc2c(=O)n1Cc1ccco1)C1CCS(=O)(=O)C1 (stereo not given)	inconclusive: 9.2 µM [inhibitor, partial curve]
CC(C)(C)C(=O)[C@H]1[C@H](c2ccccc2)[C@@]2(N=C(c3ccccc3)OC2=O)C2c3ccccc3C=NN21 (stereo not given in full)	inconclusive: 23.1 µM [activator, single point]
CC(=O)Nc1ccc(S(=O)(=O)N2CCc3c(Cl)cccc3C2)cc1	inactive
CN(C)CCNC(=O)c1cc2c(s1)-c1ccc(Cl)cc1SC2	inconclusive: 29.1 µM [inhibitor, single point]
CC(Sc1nncs1)C(=O)Nc1ccc2c(c1)OCO2 (stereo not given)	inconclusive: 29.1 µM [activator, partial curve, poor fit]
O=c1[nH]c(C2CCN(S(=O)(=O)/C=C/c3ccccc3)CC2)nc2c1nnn2Cc1ccccc1	inconclusive: 18.3 µM [inhibitor, single point]
NC1=NC2(CCN(Cc3ccccc3)CC2)n2c(nc3ccccc32)N1	inconclusive: 6.51 µM [inhibitor, partial curve]
Cc1occc1C(=O)Nc1nnc(-c2cccs2)s1	inconclusive: 3.66 µM [activator, full curve]
CCOC(=O)c1[nH]c(C)c(C(=O)OCC(=O)N(Cc2ccccc2)C(C)C)c1C	inconclusive: 29.1 µM [inhibitor, single point]
CCS(=O)(=O)Nc1ccc(C2=NN(C(=O)c3ccco3)C(c3cccc(F)c3)C2)cc1 (stereo not given)	inconclusive: 29.1 µM [inhibitor, single point]
Cc1nc2cc(C(=O)O)ccc2n1-c1ccc(F)cc1F	inactive
Cc1cccc(C)c1NC(=S)N(C)CCc1ccccn1	inactive
CC(CCc1ccccc1)NC(=O)CCN1N=C(c2ccccc2)CCC1=O (stereo not given)	inconclusive: 29.1 µM [inhibitor, single point]
Cn1nc(-c2ccc(Cl)cc2)c2cc(C(=O)NCC3CCCO3)sc21 (stereo not given)	active: 16.4 µM
Cc1cc(N/C=C/C(=O)c2ccc(Br)cc2)no1	inconclusive: 16.4 µM [activator, partial curve]
COc1cccc(-c2nnc(NC(=O)c3ccc(S(=O)(=O)N4CCOCC4)cc3)o2)c1	inconclusive: 18.4 µM [inhibitor, partial curve, poor fit]

Structures shown so far that contain an aryl thioether with sulfur outside any ring (5):
SMILES	Potency
COc1ccc(S(=O)(=O)NCCSc2ccc(C)cc2)cc1OC	inconclusive: 18.4 µM [inhibitor, partial curve, poor fit]
Cc1cc(NC(=O)CSc2nnc(-c3cccc(F)c3)n2N)no1	inactive
CC(C)N(C(=O)Cn1c(SCC(=O)NCc2ccc3c(c2)OCO3)nc2ccccc21)C(C)C	inactive
CN(C(=O)CSc1nc2ccc(Br)cc2c(=O)n1Cc1ccco1)C1CCS(=O)(=O)C1 (stereo not given)	inconclusive: 9.2 µM [inhibitor, partial curve]
CC(Sc1nncs1)C(=O)Nc1ccc2c(c1)OCO2 (stereo not given)	inconclusive: 29.1 µM [activator, partial curve, poor fit]

Additional structures.

SMILES	Potency
O=C(CCSCc1ccccc1F)N1CCN(c2ccccn2)CC1	inconclusive: 25.9 µM [activator, single point]
Cc1ccc(NC(=O)CN2C(=O)N/C(=C/c3ccco3)C2=O)cc1	inactive
OCCCNCc1ccc(-c2ccccc2)cc1	inactive
CC[n+]1ccc(/C=C2\Sc3ccccc3N2CCCS(=O)(=O)[O-])c2ccccc21	inactive
O=C(CSc1ccc(-c2ccccc2)nn1)Nc1ccc2c(c1)OCCO2	inconclusive: 18.4 µM [activator, partial curve]
O=C(CSc1nncn1-c1cccnc1)Nc1cccc(C(F)(F)F)c1	inactive
COc1cccc(C(=O)Nc2cccc(C(=O)NC3=NN(c4c(Cl)cc(Cl)cc4Cl)C(=O)C3)c2)c1	inactive
COc1ccc(N2CCN(C(=O)Cc3csc(NC(=O)Nc4ccccc4OC)n3)CC2)cc1	active: 16.4 µM
CN(c1ccc(OCC(=O)OCC(=O)NCc2ccco2)cc1)S(=O)(=O)c1ccc2ccccc2c1	inactive
Cc1cc(C)c2cc(CN(Cc3ccc4c(c3)OCO4)Cc3nnnn3Cc3ccco3)c(=O)[nH]c2c1	inconclusive: 22.4 µM [inhibitor, single point]
O=C(CN1C2CCCC1CC(NC(=O)C1CCCCC1)C2)NCc1ccc(F)cc1 (stereo not given)	active: 11.6 µM
COc1cc(NC(C)=O)c2ncccc2c1[N+](=O)[O-]	inactive
Cc1cccc(Nc2nc(N3CCN(C)CC3)nc(N)c2[N+](=O)[O-])c1	inconclusive: 23.1 µM [inhibitor, single point]
Cc1occc1C(=O)NCCCc1ccccc1	inconclusive: 23.1 µM [activator, single point]
O=C(C1=C(O)C(=O)N(CCCN2CCOCC2)C1c1ccncc1)c1cc2ccccc2o1 (stereo not given)	inconclusive: 18.4 µM [activator, partial curve, poor fit]
O=c1ccccn1CCOc1ccccc1Cl	inconclusive: 20.6 µM [activator, partial curve]
CCOC(=O)c1ccc(NC(=O)CC2OCCN(CC)C2=O)cc1 (stereo not given)	inconclusive: 29.1 µM [activator, single point]
CN1CCN(C2=CC(=O)OC23CCCCC3)CC1	inactive
CS(=O)(=O)N1CCN(c2ccccc2NC(=O)c2ccc3ccccc3c2)CC1	active: 11.6 µM
O=C(CSCc1c(F)cccc1F)Nc1ccccc1	inconclusive: 14.6 µM [activator, partial curve]
CCN(CC)S(=O)(=O)c1ccc(/C=C/C(=O)Nc2ccc(F)c(F)c2F)cc1	inconclusive: 3.26 µM [inhibitor, partial curve, poor fit]
COc1cc(/C=N/Nc2ccc([N+](=O)[O-])cc2S(=O)(=O)N2CCOCC2)cc(OC)c1OC	inconclusive: 7.31 µM [inhibitor, partial curve]
